Patent publication US20040058938A1, “Use of substituted imidazoazines, novel imidazoazines, methods for the production thereof, and agents containing these compounds” (priority 2000, published 2004)
Some results were stated once for a whole list of compounds, not compound by compound.

Each compound was assayed on Plasmopara viticola (assay: Activity against Plasmopara viticola on potted vines (protective spray, visual infection)). Conditions: 250 ppm; vine leaves, cultivar Müller-Thurgau; underside of leaves; untreated plants 85% infected.
Assay type: in vivo
With CCCCNc1c(-c2cccc(Oc3ccccc3)c2)nc2cnccn12 [Compound I-103] the infection was “not more than 20%”.
In the case of CCCCNc1c(-c2c(OC)cc(OC)cc2OC)nc2cnccn12 [Compound I-38], the infection is reported as “not more than 20%”.
CCCCNc1c(-c2ccc(F)cc2)nc2ccccn12 [Compound I-5] was tested, and the infection was “not more than 20%”.
With CCCCNc1c(-c2c(OC)nc(SC)nc2OC)nc2ccccn12 [Compound I-57] the infection was “not more than 20%”.
With CCCC1CCC(c2nc3ncccn3c2NC(C)C)C1 (stereo not drawn) [Compound I-121] the infection was “not more than 20%”.
For CCCCNc1c(-c2c(OC)nc(SC)nc2OC)nc2cnccn12 [Compound I-69], the infection was “not more than 20%”.
CCCCNc1c(-c2ccccc2)nc2cnccn12 [Compound I-41] was tested, and the infection was “not more than 20%”.
CCCCNc1c(-c2ccccc2OC)nc2cnccn12 [Compound I-37] was tested, and the infection was “not more than 20%”.
For Cc1cccc(-c2nc3cnccn3c2NC(C)C(C)(C)C)c1 (stereo not drawn) [Compound I-118], the infection was “not more than 20%”.
With CCCCNc1c(-c2ccc3ccccc3c2)nc2cnccn12 [Compound I-74] the infection was “not more than 20%”.
CCCCNc1c(-c2cc(Br)sc2Br)nc2cnccn12 [Compound I-68] was tested, and the infection was “not more than 20%”.
In the case of CCCCNc1c(-c2ccccc2C)nc2cnccn12 [Compound I-31], the infection is reported as “not more than 20%”.
For CCCCNc1c(-c2c(Cl)cccc2Cl)nc2ncccn12 [Compound I-22], the infection was “not more than 20%”.
With CCCCNc1c(-c2ccn(C(C)(C)C)c2)nc2cnccn12 [Compound I-72] the infection was “not more than 20%”.
CCCCNc1c(-c2cccc(Cl)c2)nc2cnccn12 [Compound I-29] was tested, and the infection was “not more than 20%”.
CCCCNc1c(-c2cccc(C)c2)nc2cnccn12 [Compound I-32] was tested, and the infection was “not more than 20%”.
With CCCCNc1c(-c2cc(OC)c(OC)c(OC)c2)nc2cnccn12 [Compound I-39] the infection was “not more than 20%”.
CCCCNc1c(-c2ccccc2OCc2ccccc2)nc2cnccn12 [Compound I-35] was tested, and the infection was “not more than 20%”.
For Fc1cccc(F)c1-c1nc2ccccn2c1NC1CCCCC1 [Compound I-16], the infection was “not more than 20%”.
With CCCCNc1c(-c2ccc(Cl)cc2)nc2cnccn12 [Compound I-88] the infection was “not more than 20%”.
In the case of CCCCNc1c(-c2ccc(OC)cc2)nc2cnccn12 [Compound I-36], the infection is reported as “not more than 20%”.
CCCCNc1c(-c2ccccc2Cl)nc2ccccn12 [Compound I-14] was tested, and the infection was “not more than 20%”.
For CCCCNc1c(-c2ccc3cccnc3c2)nc2cnccn12 [Compound I-76], the infection was “not more than 20%”.
In the case of CCCCNc1c(-c2cccnc2)nc2ccccn12 [Compound I-66], the infection is reported as “not more than 20%”.
In the case of CCCCNc1c(-c2cccc(C(F)(F)F)c2)nc2cnccn12 [Compound I-78], the infection is reported as “not more than 20%”.
In the case of CC(C)Nc1c(-c2csc(Cl)c2Cl)nc2cnccn12 [Compound I-92], the infection is reported as “not more than 20%”.
With CC(C)Nc1c(-c2ccc3ccccc3c2)nc2cnccn12 [Compound I-94] the infection was “not more than 20%”.
CCCCNc1c(-c2ccc3cccnc3c2)nc2ccccn12 [Compound I-54] was tested, and the infection was “not more than 20%”.
In the case of CC1CCC(c2nc3ncccn3c2NC(C)C)CC1 (stereo not drawn) [Compound I-120], the infection is reported as “not more than 20%”.
In the case of CCCCNc1c(-c2ccccc2OC(F)(F)C(F)F)nc2ccccn12 [Compound I-6], the infection is reported as “not more than 20%”.
In the case of CCCCNc1c(-c2ccc(N(C)C)cc2)nc2cnccn12 [Compound I-86], the infection is reported as “not more than 20%”.
With CCCCNc1c(-c2ccc(F)cc2)nc2ncccn12 [Compound I-21] the infection was “not more than 20%”.
With CCCCNc1c(-c2cccc(Cl)c2Cl)nc2cnccn12 [Compound I-81] the infection was “not more than 20%”.
With CCCCNc1c(-c2ccoc2)nc2ccccn12 [Compound I-67] the infection was “not more than 20%”.
CCCCNc1c(-c2csc([N+](=O)[O-])c2)nc2cnccn12 [Compound I-104] was tested, and the infection was “not more than 20%”.
In the case of CCCCNc1c(-c2c(C)nn(-c3ccc(Cl)cc3)c2C)nc2cnccn12 [Compound I-75], the infection is reported as “not more than 20%”.
CC(Nc1c(-c2ccccc2)nc2ccccn12)C(C)(C)C (stereo not drawn) [Compound I-110] was tested, and the infection was “not more than 20%”.
For CCCCNc1c(-c2ccc(OC)c(OC)c2OC)nc2cnccn12 [Compound I-40], the infection was “not more than 20%”.
CCCCNc1c(-c2ccccc2F)nc2ccccn12 [Compound I-3] was tested, and the infection was “not more than 20%”.
In the case of CCCCNc1c(-c2ccccc2)nc2ncccn12 [Compound I-12], the infection is reported as “not more than 20%”.
In the case of CCCCNc1c(-c2c(F)cccc2Cl)nc2ncccn12 [Compound I-11], the infection is reported as “not more than 20%”.
For CC(C)Nc1c(-c2ccoc2)nc2ncccn12 [Compound I-101], the infection was “not more than 20%”.
CCCCNc1c(-c2c(F)cccc2F)nc2cnccn12 [Compound I-23] was tested, and the infection was “not more than 20%”.
In the case of CCCCNc1c(-c2ccc(C)cc2C)nc2cnccn12 [Compound I-34], the infection is reported as “not more than 20%”.
With CCCCNc1c(-c2csc(Cl)c2Cl)nc2ccccn12 [Compound I-61] the infection was “not more than 20%”.
For CC(C)Nc1c(-c2cccc(Oc3ccccc3)c2)nc2ncccn12 [Compound I-102], the infection was “not more than 20%”.
In the case of CCCCNc1c(-c2csc(Cl)c2Cl)nc2cnccn12 [Compound I-73], the infection is reported as “not more than 20%”.
CCCCNc1c(-c2cccc(Cl)c2)nc2ccc(C(F)(F)F)cn12 [Compound I-116] was tested, and the infection was “not more than 20%”.
CCCCNc1c(-c2ccc(OC(F)(F)C(F)F)cc2)nc2cnccn12 [Compound I-80] was tested, and the infection was “not more than 20%”.
For CCCCNc1c(-c2cnn(C(C)(C)C)c2)nc2cnccn12 [Compound I-77], the infection was “not more than 20%”.
For CCCCNc1c(-c2ccc(C)cc2)nc2cnccn12 [Compound I-33], the infection was “not more than 20%”.
For CCCCNc1c(-c2c(Cl)cccc2Cl)nc2ccccn12 [Compound I-15], the infection was “not more than 20%”.
With CCCCNc1c(-c2ccccc2C(F)(F)F)nc2cnccn12 [Compound I-79] the infection was “not more than 20%”.
With CC(C)(C)Nc1c(-c2c(F)cc(F)cc2F)nc2cnccn12 [Compound I-49] the infection was “not more than 20%”.
For CCCCNc1c(-c2ccccc2Br)nc2cnccn12 [Compound I-85], the infection was “not more than 20%”.
CC(C)Nc1c(-c2ccc3ccncc3c2)nc2ncccn12 [Compound I-107] was tested, and the infection was “not more than 20%”.
For CC(C)(C)Nc1c(-c2c(F)cccc2F)nc2cnccn12 [Compound I-44], the infection was “not more than 20%”.

What follows are compounds tested on Alternaria solani (assay: Activity against Alternaria solani on tomatoes (protective spray, visual disease level)). Conditions: 250 ppm; tomato leaves, cultivar Große Fleischtomate St. Pierre; evaluated after 5 days; untreated plants 90% infected.
Assay type: in vivo
With CCCCNc1c(-c2ccccc2F)nc2ncccn12 [Compound I-13] the infection was “not more than 20%”.
Fc1cc(F)c(-c2nc3cnccn3c2NC2CCCCC2)c(F)c1 [Compound I-51] was tested, and the infection was “not more than 20%”.
Fc1cccc(F)c1-c1nc2ccccn2c1NC1CCCCC1 [Compound I-16] was tested, and the infection was “not more than 20%”.
With CCCCNc1c(-c2ccccc2Cl)nc2ccccn12 [Compound I-14] the infection was “not more than 20%”.
For CCCCNc1c(-c2cccnc2)nc2ccccn12 [Compound I-66], the infection was “not more than 20%”.
In the case of CCCCNc1c(-c2cccc(C(F)(F)F)c2)nc2cnccn12 [Compound I-78], the infection is reported as “not more than 20%”.
With CCCCNc1c(-c2ccoc2)nc2ccccn12 [Compound I-67] the infection was “not more than 20%”.
CCCCNc1c(-c2c(Cl)cccc2Cl)nc2ccccn12 [Compound I-15] was tested, and the infection was “not more than 20%”.
CC(Nc1c(-c2cccc(OCc3ccccc3)c2)nc2ccccn12)C(C)(C)C (stereo not drawn) [Compound I-112] was tested, and the infection was “not more than 20%”.
